Reference: PubChem BioAssay AID652243 (Drosophila RNAi Screening Center, 2013)
In all, the deposit lists about 24,000 reagents; below is an unselected part of those that have a named target and a result. In the full data, 246 (1%) got an active call. 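Plates not normalised; calls are printed but the firefly/Renilla ratio behind them is not deposited; fold cut for lowering reported inconsistently.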 The raw values are shown without normalisation. The record does not give: the amount of reagent.

Screen: 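Knock-downs that decrease or increase androgen receptor reporter signal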 (primary screen)
System: Drosophila S2R+ cells
Reagent: long dsRNA against Drosophila genes
Time to read-out: 72 h (48 h, then 24 h hormone)
Challenge: synthetic androgen R1881 at 10 nM for 24 h
Read-out: 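Firefly light from an androgen-responsive reporter and Renilla control light per well, raw and unnormalised, for each of two replicates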
Direction: firefly reporter light: higher = more light from androgen-responsive reporter; Renilla control light: higher = more constitutive control signal (cell number, transfection)
Active means: 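Hit when the log firefly-to-Renilla ratio dropped or increased by a fixed fold versus the mean of GFP or LacZ controls across duplicate plates; lowering cut given as 1.5 and as 3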
Meaning of the calls: active = hit: reporter lowered or raised; inactive = no hit

{"Target gene": "CG14893", "DRSC id": "DRSC15015", "firefly reporter light, replicate 1": 1.93e5, "firefly reporter light, replicate 2": 1.79e5, "Renilla control light, replicate 1": 3.57e6, "Renilla control light, replicate 2": 2.89e6, "Outcome": "inactive"}
{"Target gene": "Diap2 (Death-associated inhibitor of apoptosis 2)", "DRSC id": "DRSC07444", "firefly reporter light, replicate 1": 1.45e6, "firefly reporter light, replicate 2": 1.52e6, "Renilla control light, replicate 1": 2.16e6, "Renilla control light, replicate 2": 2.21e6, "Outcome": "inactive"}
{"Target gene": "Diap2 (Death-associated inhibitor of apoptosis 2)", "DRSC id": "DRSC26613", "firefly reporter light, replicate 1": 2.09e5, "firefly reporter light, replicate 2": 3.04e5, "Renilla control light, replicate 1": 4.82e5, "Renilla control light, replicate 2": 4.57e5, "Outcome": "inactive"}
{"Target gene": "lncRNA:CR32160 (long non-coding RNA:CR32160)", "DRSC id": "DRSC22904", "firefly reporter light, replicate 1": 4.31e5, "firefly reporter light, replicate 2": 1.07e6, "Renilla control light, replicate 1": 9.99e5, "Renilla control light, replicate 2": 2.05e6, "Outcome": "inactive"}
{"Target gene": "CG12538", "DRSC id": "DRSC14527", "firefly reporter light, replicate 1": 1.06e5, "firefly reporter light, replicate 2": 1.16e5, "Renilla control light, replicate 1": 2.06e6, "Renilla control light, replicate 2": 1.96e6, "Outcome": "inactive"}
{"Target gene": "CG12538", "DRSC id": "DRSC23603", "firefly reporter light, replicate 1": 7.71e5, "firefly reporter light, replicate 2": 7.53e5, "Renilla control light, replicate 1": 1.23e6, "Renilla control light, replicate 2": 1.24e6, "Outcome": "inactive"}
{"Target gene": "santa-maria", "DRSC id": "DRSC00994", "firefly reporter light, replicate 1": 1.95e5, "firefly reporter light, replicate 2": 1.88e5, "Renilla control light, replicate 1": 2.99e5, "Renilla control light, replicate 2": 2.39e5, "Outcome": "inactive"}
{"Target gene": "santa-maria", "DRSC id": "DRSC02180", "firefly reporter light, replicate 1": 9.11e5, "firefly reporter light, replicate 2": 1.31e6, "Renilla control light, replicate 1": 1.62e6, "Renilla control light, replicate 2": 1.92e6, "Outcome": "inactive"}
{"Target gene": "beag", "DRSC id": "DRSC15296", "firefly reporter light, replicate 1": 36570, "firefly reporter light, replicate 2": 53008, "Renilla control light, replicate 1": 3.28e5, "Renilla control light, replicate 2": 3.49e5, "Outcome": "inactive"}
{"Target gene": "CycT (Cyclin T)", "DRSC id": "DRSC11124", "firefly reporter light, replicate 1": 5202, "firefly reporter light, replicate 2": 5950, "Renilla control light, replicate 1": 1.10e5, "Renilla control light, replicate 2": 1.35e5, "Outcome": "active"}
{"Target gene": "CycT (Cyclin T)", "DRSC id": "DRSC23304", "firefly reporter light, replicate 1": 1.47e5, "firefly reporter light, replicate 2": 1.27e5, "Renilla control light, replicate 1": 4.28e5, "Renilla control light, replicate 2": 4.42e5, "Outcome": "inactive"}
{"Target gene": "CycT (Cyclin T)", "DRSC id": "DRSC29416", "firefly reporter light, replicate 1": 1.15e5, "firefly reporter light, replicate 2": 1.82e5, "Renilla control light, replicate 1": 4.40e5, "Renilla control light, replicate 2": 4.40e5, "Outcome": "inactive"}
{"Target gene": "CycT (Cyclin T)", "DRSC id": "DRSC36756", "Outcome": "inactive"}
{"Target gene": "CycT (Cyclin T)", "DRSC id": "DRSC36757", "Outcome": "inactive"}

Records listed so far whose target name starts with D or d:
{"Target gene": "Diap2 (Death-associated inhibitor of apoptosis 2)", "DRSC id": "DRSC07444", "firefly reporter light, replicate 1": 1.45e6, "firefly reporter light, replicate 2": 1.52e6, "Renilla control light, replicate 1": 2.16e6, "Renilla control light, replicate 2": 2.21e6, "Outcome": "inactive"}
{"Target gene": "Diap2 (Death-associated inhibitor of apoptosis 2)", "DRSC id": "DRSC26613", "firefly reporter light, replicate 1": 2.09e5, "firefly reporter light, replicate 2": 3.04e5, "Renilla control light, replicate 1": 4.82e5, "Renilla control light, replicate 2": 4.57e5, "Outcome": "inactive"}
